{
  "source": "patent US20100099674A1",
  "about": "(priority 2007, published 2010)",
  "system": "Enterotoxic Escherichia coli (ETEC)",
  "assay_type": "cell-based",
  "note": "At least one compound was matched to its structure with a doubt left.",
  "data": [
    {"smiles": "COc1ccccc1N1CCN(Cc2cc([N+](=O)[O-])c3cccnc3c2O)CC1", "note": "[Substance 3]", "values": [
      {"measurement": "Ex vivo ETEC (Neg Control)", "result": "−"}
    ]}
  ]
}
